Data published in publication PMC5612990 (2017).

Experiment: general procedure: Fmoc solid-phase peptide synthesis
Conditions: conjugation step

Sequence: CTVRTSAD
- conjugation yield: 82%

Ends that are not written are not given here.
